Measured values as given in US12503436B2, “Compounds and compositions for treating conditions associated with STING activity” (NOVARTIS PHARMA AG, priority 2021, dated 2025).
Structures were worked out from names or drawings and are uncertain.

Protein sequences, listed by entry. Tags and fused reporters are not part of them.
UniProt Q86WV6, whole entry R71H/G230A/H232R/R293Q: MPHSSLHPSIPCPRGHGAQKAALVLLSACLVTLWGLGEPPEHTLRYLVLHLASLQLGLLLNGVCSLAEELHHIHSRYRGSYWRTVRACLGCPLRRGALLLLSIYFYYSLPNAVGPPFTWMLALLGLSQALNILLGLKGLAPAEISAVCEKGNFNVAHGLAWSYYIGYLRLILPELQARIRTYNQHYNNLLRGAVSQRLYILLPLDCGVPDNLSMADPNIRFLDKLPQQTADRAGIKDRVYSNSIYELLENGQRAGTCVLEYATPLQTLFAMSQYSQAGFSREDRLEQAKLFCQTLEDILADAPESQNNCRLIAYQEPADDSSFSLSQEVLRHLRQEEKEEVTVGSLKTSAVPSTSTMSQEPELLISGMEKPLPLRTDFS

Biological target: STING (Homo sapiens, UniProt Q86WV6, G230A/H232R/R293Q/R71H)
Assay: STING reporter assay in THP1-Dual KO-IFNAR2 cells (2′3′cGAMP stimulation, luciferase reporter)
Conditions: read-out: Pharmaron, THP1_IFNAR2 STING 24 h Luci Normalized: GeoMean EC50, 15 μM 2′3′cGAMP stimulation
Procedure: STING pathway activation by the compounds described herein was measured using THP1-Dual™ cells (KO-IFNAR2).
THP1-Dual™ KO-IFNAR2 Cells (obtained from InvivoGen) were maintained in RPMI, 10% FCS, 5 ml P/S, 2 mM L-glut, 10 mM Hepes, and 1 mM sodium pyruvate. Compounds were spotted in empty 384 well tissue culture plates (Greiner 781182) by Echo for a final concentration of 0.0017-100 μM. Cells were plated into the TC plates at 40 μL per well, 2×10E6 cells/mL. For activation with STING ligand, 2′3′cGAMP (MW 718.38, obtained from Invivogen), was prepared in Optimem media.
The following solutions were prepared for each 1×384 plate: • Solution A: 2 mL Optimem with one of the following stimuli: • 60 μL of 10 mM 2′3′cGAMP→150 μM stock • Solution B: 2 mL Optimem with 60 μL Lipofectamine 2000→Incubate 5 min at RT
2 mL of solution A and 2 ml Solution B was mixed and incubated for 20 min at room temperature (RT). […] Luciferase reporter activity was then measured. EC50 values were calculated by using standard methods known in the art.
Luciferase reporter assay: 10 μL of supernatant from the assay was transferred to white 384-plate with flat bottom and squared wells. […] Luminescence was measured on a Platereader (e.g., Spectramax I3X (Molecular Devices GF3637001)).
Luciferase reporter activity was then measured. EC50 values were calculated by using standard methods known in the art.

EC50 | Compound
1000 to 5000 nM | CC(=O)Nc1c[nH]c2c(C)cc(OCCc3ccc(C(F)(F)F)cc3)nc12
200 to 1000 nM | CC(=O)Nc1c[nH]c2ccc(CCCn3cc(C(F)(F)F)cn3)cc12
